Experimental data: PubChem BioAssay AID504467 (National Center for Advancing Translational Sciences (NCATS), 2011)
The whole screen tested about 330,000 compounds, of which about 7,700 (2.3%) were called active. The inconclusive results got no clear call from the source; some entries with a clear call stand among them for comparison. Calls follow the shape of the dose curve; as a rule, active = well fitted inhibition curve with a large enough effect; inconclusive = small, poorly fitted or top-dose-only effect, or effect the other way; inactive = flat fitted curve, though single readings scatter. Potencies of inconclusive entries are doubtful fits and often do not repeat.

test: qHTS screen for small molecules that inhibit ELG1-dependent DNA repair in human embryonic kidney (HEK293T) cells expressing luciferase-tagged ELG1; conditions: HEK293T ELG1-luciferase reporter, luminescence, 16 h, DNA damage induced by 5-fluorouridine; series mostly up to 46.1 µM; also: nearly all actives have a fitted effect of over 55% in size
Excerpt: NIH Molecular Libraries Probe Production Network [MLPCN] NIH Chemical Genomics Center [NCGC] MLPCN Grant: 1 R03 MH092164-01 Assay Provider: Kyungjae Myung, NHGRI, NIH Keywords: MLPCN, qHTS, NCGC, genotoxicity, cancer Assay Overview: Cancer cells divide rapidly compared to normal cells in the body. During cell division, cancer cells need to duplicate their genome by DNA replication. The failure of genome duplication leads to cancer cells' death. Therefore, inhibitors of DNA replication could specifically kill cancer cells. Based on this concept, many chemotherapeutic agents were developed and have been used to treat cancer patients. However, there are a limited number of agents available in the clinical setting, and some of those that do exist have low efficacy and severe side effects. Therefore, if we can find the compounds that effectively block DNA replication either by directly damaging DNA or by inhibiting other cellular mechanisms, the options for cancer treatment will be broadened. With this in mind, we developed a quantitative high-throughput ELG1-luciferase reporter gene assay. Small molecules that specifically block ELG1 function in response to DNA damage can be identified by monitoring the suppression of luciferase activity. Since ELG1 defines a pathway for repairing DNA damage, agents blocking ELG1 function can be used to sensitize cancer cells to chemotherapeutic agents whose mechanism of action involves the induction of DNA damage.
Assay Protocol Summary: For genotoxicity screening, 2,000 cells in 4 uL/well were dispensed into white, solid-bottom 1536-well plates using a solenoid-based dispenser. Following transfer of 1 uL 5-Fluorouridine and 23 nL compound or DMSO vehicle by a pin tool, the plates were incubated 16 hr at 37 °C and 5% CO2. 5 ul ONE-Glo (Promega) was then added to each plate and following a 30 min incubation at room temperature, luciferase activity was quantified on a ViewLux CCD-based plate reader.
Potency is read from the fitted curve at half-maximal effect.

Compound | Potency
O=C(CSc1nnc2ccccn12)Nc1cccc(-c2nc3ccccc3s2)c1 | inconclusive: 9.2 µM [activator, partial curve]
CCOc1ccccc1NC(=O)Cn1nnc(C(=O)NCc2cccs2)c1N | inactive
O=[N+]([O-])c1ccc(N(CC2CO2)S(=O)(=O)c2ccccc2)cc1 (stereo not given) | inconclusive: 29.1 µM [activator, single point]
CC(C)(C)OC(=O)NN1CC(=O)N2[C@@H](Cc3c([nH]c4ccccc34)C2(C)C)C1=O | inactive
CCOc1ccccc1NC(=O)c1cc(-c2ccncc2)nc2c(Cl)cccc12 | inconclusive: 20.6 µM [inhibitor, single point]
CCOC(=O)c1c(C)oc2c1c(C(c1cccnc1)N1CCOCC1)c(O)c1ccccc12 (stereo not given) | inconclusive: 23.1 µM [activator, partial curve]
OCCN1C2=NCCCN2c2ccccc21 | inactive
O=C(NCc1ccc(N2CCCC2=O)cc1)c1cc(COc2c(F)cccc2F)on1 | inconclusive: 20.6 µM [inhibitor, single point]
O=C(/C=C\c1ccco1)NC(=S)Nc1ccccc1O | inconclusive: 14.6 µM [activator, partial curve]
CCCS(=O)(=O)c1ccc(COC(=O)Cc2ccc([N+](=O)[O-])cc2)cc1 | inactive
CC(=O)c1cc(C(=O)Nc2ccc3ccccc3c2)c(C)o1 | inactive
O=c1c2[nH]c3ccccc3c2ncn1CCC1=CCCCC1 | inconclusive: 5.01 µM [activator, partial curve]
O=C(CSc1nc2ccccc2[nH]1)Nc1nc(-c2ccc(Br)cc2)cs1 | inconclusive: 11.6 µM [inhibitor, partial curve, poor fit]
O=C(CSc1nc2ccccc2c(=O)[nH]1)Nc1ccc([N+](=O)[O-])cc1 | active: 18.3 µM
Cc1cc(C)n2nc(C(=O)OCC(=O)NNC(=O)c3ccccc3)nc2n1 | inactive
Cc1ccc(CNc2ccc3c(c2)nc(C)n3C)cc1 | inconclusive: 1.83 µM [activator, partial curve]
CC1CN(c2ccc([N+](=O)[O-])c(NCCOc3ccccc3)c2)CC(C)N1 (stereo not given) | inactive
CCOC(=O)c1sc(-c2ccccc2)cc1NC(=O)Nc1ccc([N+](=O)[O-])cc1 | active: 6.51 µM
Cc1ccc(C(=O)N2CCN(c3ccc([N+](=O)[O-])cc3)CC2)o1 | inactive
Cc1cccc(C(=O)Nc2ccc(C(=O)N3CCCCC3C)cc2)c1 (stereo not given) | inconclusive: 16.4 µM [activator, single point]
Cc1oc(-c2ccc(Cl)cc2)nc1CSCC(=O)NC1CCN(Cc2ccccc2)CC1 | inconclusive: 4.61 µM [inhibitor, partial curve]
Cc1ccc(S(=O)(=O)Nc2cc(C)c(O)cc2C)cc1 | inconclusive: 29.1 µM [inhibitor, single point]
COc1ccc(C2=NS(=O)(=O)N(C)C(C(=O)Nc3ccc(C(C)=O)cc3)=C2)cc1OC | inactive
COc1ccc(-c2ccc(SCc3ccccn3)nn2)cc1OC | inactive
Cn1nc(-c2ccc(Cl)cc2)c2cc(C(=O)NCc3ccco3)sc21 | active: 25.9 µM

Fetched by structure from above:
Compound | Potency
Cc1cccc(C(=O)Nc2ccc(C(=O)N3CCCCC3C)cc2)c1 (stereo not given) | inconclusive: 16.4 µM [activator, single point]
COc1ccc(C2=NS(=O)(=O)N(C)C(C(=O)Nc3ccc(C(C)=O)cc3)=C2)cc1OC | inactive
CCOC(=O)c1c(C)oc2c1c(C(c1cccnc1)N1CCOCC1)c(O)c1ccccc12 (stereo not given) | inconclusive: 23.1 µM [activator, partial curve]
Cc1oc(-c2ccc(Cl)cc2)nc1CSCC(=O)NC1CCN(Cc2ccccc2)CC1 | inconclusive: 4.61 µM [inhibitor, partial curve]
CCOc1ccccc1NC(=O)c1cc(-c2ccncc2)nc2c(Cl)cccc12 | inconclusive: 20.6 µM [inhibitor, single point]

(more compounds)

Compound | Potency
COC(=O)C1=CN(c2ccc(OC)cc2)C=C(C(=O)OC)C1c1cccc(F)c1 | inconclusive: 29.1 µM [inhibitor, single point]
COc1ccccc1-c1cc(C(=O)Nc2cc(C)nn2-c2ccccc2)no1 | inconclusive: 8.2 µM [inhibitor, partial curve]
Cc1ccc(C)c(SCC(=O)Nc2cc(S(=O)(=O)N3CCOCC3)ccc2C)c1 | inactive
CC(=O)c1ccc(NC(=O)[C@@H]2CCCN2C(=O)OC(C)(C)C)cc1 | inconclusive: 23.1 µM [activator, partial curve]
CC(=O)Oc1ccc2nc(-c3cccs3)oc(=O)c2c1 | inactive
CCOc1ncccc1-c1nc(-c2cccs2)no1 | inconclusive: 14.6 µM [activator, partial curve]
CCOCCn1ccc2c(OCC(=O)Nc3ccccc3F)cccc2c1=O | inconclusive: 29.1 µM [inhibitor, single point]
Cc1ccc(/C=C2\SC(N3CCCCC3)=NC2=O)cc1 | inconclusive: 20.6 µM [activator, partial curve]
CCC(C)Sc1ccc(-c2nc3ccc(C)cn3c2NCc2ccccc2)cc1OC (stereo not given) | inconclusive: 7.08 µM [inhibitor, single point]
O=C1C2C3C=CC(CC3)C2C(=O)N1c1ccccc1[N+](=O)[O-] (stereo not given) | inactive
CCOC(=O)c1ccc(-n2c(C)ccc2C)cc1 | inactive
Cc1c(C(=O)NCCSCc2ccc(F)cc2)cnn1-c1ccc(Cl)cc1 | inactive
CCN(CC)CCCOC(=O)c1ccc(OC)cc1O | inactive
O=C(N[C@@H](Cc1ccccc1)C(=O)OCc1ccccc1)c1nc[nH]c1C(=O)NCc1ccccc1 | inactive
Cc1ccc(S(=O)(=O)N2CCCCC2)cc1NC(=O)c1ccncc1 | inactive
N#Cc1c(-c2cccnc2)cc(-c2ccccc2)nc1N | inconclusive: 11.6 µM [activator, partial curve]
COc1ccc(-c2nn(-c3ccccc3)cc2C(=O)n2nnc3ccccc32)cc1 | inactive
OC(COCc1ccc(Cl)cc1)CN1CCN(CC(O)COCc2ccc(Cl)cc2)CC1 (stereo not given) | active: 20.6 µM
O=C(c1ccc(-c2nnc(-c3ccccc3)o2)cc1)N1CCCCCC1 | inconclusive: 4.61 µM [activator, partial curve]
CCN(c1cccc(C)c1)S(=O)(=O)c1ccc2c(c1)oc(=O)n2C | inactive
COc1cccc(C(=O)NCCS(=O)(=O)NC(C)CCc2ccccc2)c1 (stereo not given) | inactive
CCNC(=S)N=Nc1c(O)[nH]c2ccc(C(C)C)cc12 | inconclusive: 8.2 µM [inhibitor, partial curve, poor fit]
C/C(=N\Nc1ncc(Cl)cc1Cl)c1ccc(S(=O)(=O)NCc2ccco2)cc1 | inconclusive: 29.1 µM [inhibitor, single point]
O=C(COc1ccccc1)OCC(=O)c1c[nH]c2ccccc12 | inactive
CC[C@]12c3[nH]c4cc(CCC(=O)N(C)C)ccc4c3CCN1C(=O)[C@@H](CC(=O)NCc1cccc(C(F)(F)F)c1)C[C@@H]2C(=O)N1CCN(C(=O)C2CC2)CC1 | inactive

Compound | Potency
CSCCC1NC(=O)N(CC(=O)Nc2ccc(N3CCCCC3)cc2)C1=O (stereo not given) | inconclusive: 32.6 µM [activator, partial curve, poor fit]
CCN(CC)CCCNC(=S)N1CCN(c2nc(-c3ccc(F)cc3)cs2)CC1 | inactive
COc1cc(N(C)C)c([N+](=O)[O-])cc1C(=O)N1CCN(Cc2ccccc2)CC1 | inconclusive: 29.1 µM [inhibitor, single point]
CCOc1ccccc1OCC(=O)Nc1cccc(S(=O)(=O)N2CCCCCC2)c1 | inconclusive: 25.9 µM [inhibitor, single point]
COc1cc(/C=C/c2cc(C(=O)O)c3ccccc3n2)cc(OC)c1O | inactive
CCN(CC)C(=O)CN1C(=O)/C(=C/c2ccccc2)SC1=S | inactive
Cn1nc(C(F)(F)F)c(/C=N/OC(=O)c2ccccc2)c1SCc1ccc(Cl)cc1 | inconclusive: 14.6 µM [inhibitor, partial curve]
COCCNc1ncnc2c1[nH]c1ccccc12 | active: 14.6 µM
O=C(NN1C(=O)NC2(CCCCC2)C1=O)c1ccc(Cl)c(Cl)c1 | inactive
CN(CCOc1ccccc1)C(=S)Nc1ccc(OC(F)F)cc1 | inconclusive: 29.1 µM [inhibitor, single point]
Cc1ccc(C(=O)COC(=O)CN2C(=O)C3C4CCC(C4)C3C2=O)cc1[N+](=O)[O-] (stereo not given) | inconclusive: 32.6 µM [activator, partial curve, poor fit]
CCCOc1ccc(NC(=O)C(=O)NCCCn2ccnc2)cc1 | inactive
COc1ccc(C(=O)NCCS(=O)(=O)NCc2cccs2)cc1 | inconclusive: 29.1 µM [activator, partial curve, poor fit]
CN1CCN(CC(O)COC(c2ccccc2)c2ccccc2)CC1 (stereo not given) | inactive
Cc1cc(C)nc(SCc2nnc(SCC(=O)Nc3ccc(C)c(C)c3)n2Cc2ccco2)n1 | inconclusive: 23.1 µM [inhibitor, partial curve]
CCOc1cccc(-c2c(C(=O)N/N=C/c3sccc3C)nnn2-c2nonc2N)c1 | inconclusive: 29.1 µM [inhibitor, single point]
COc1ccc(-c2c(C)nn(-c3ccccc3)c2N)cc1OC | inconclusive: 18.4 µM [activator, partial curve]
Fc1ccc2cnc(-c3ccccc3)cc2c1 | inconclusive: 13 µM [activator, partial curve]
C(=N\Nc1nc2ccccc2[nH]1)/c1ccncc1 | inconclusive: 20.6 µM [activator, partial curve]
Nc1cc(C(=O)OCC(=O)NCc2ccco2)ccc1Cl | inactive
CC1CCN(S(=O)(=O)N2CCCC(C(=O)NCc3ccc(F)cc3)C2)CC1 (stereo not given) | inactive
CCCn1c(NCc2cccc(OC)c2O)nc2ccccc21 | inconclusive: 23.1 µM [activator, single point]
Cc1cccc(C)c1NC(=O)CSc1nc(-c2ccco2)cc(C(F)(F)F)n1 | inactive
O=C(CN1C(=O)NC2(CCCc3ccccc32)C1=O)Nc1cc(F)ccc1F (stereo not given) | inactive
COc1ccc(S(=O)(=O)N2CCCCC2)cc1NC(=O)Cc1sc(C)nc1-c1ccc(F)cc1 | inconclusive: 18.3 µM [inhibitor, single point]
